From PubChem BioAssay AID624297 (National Center for Advancing Translational Sciences (NCATS), 2012)
Hit rate of the full screen: of about 340,000 compounds, about 6,200 (1.8%) were called active. This list was built around the results that the source calls inconclusive (neither active nor inactive); the mix of calls is not that of the screen. Calls come from the whole dose curve; as a rule, active = well fitted activation curve with a large enough effect; inconclusive = small, poorly fitted or top-dose-only effect; inactive = no such curve, though single readings can be large or run the other way. Potencies of inconclusive entries are doubtful fits and often do not repeat.

test: A quantitative high throughput screen for small molecules that induce DNA re-replication in SW480 colon adenocarcinoma cells.; note: nearly all actives have a fitted effect of over 55% in size; for re-replication activation: % of control where 0% means no effect; conditions: Hoechst DNA content imaging, 48 h; re-replication activation: at 46.1 µM (top of the series) unless noted
How it was run: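 Quantitative HTS format with DMSO vehicle controls; 48 hr drug incubation at 37 C, then 40 min Hoechst staining and scanning imager measurement at 405 nm excitation.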
Potency is the fitted concentration of half-maximal effect.

Q: Which Potency does the source give for `COc1ccc(NC(=O)CCN2CCN(c3ccccc3F)CC2)c(OC)c1` here?
A: The Potency was “inactive”.

Q: For `O=C(Nc1ccccc1F)c1ccc(CN2CCc3ccccc3C2)cc1`, which Potency is on record?
A: The Potency was inconclusive: 9.2 µM [activator, single point].

Q: Which Potency does the source give for `Clc1nn2cnnc2c2ccccc12` here?
A: Its Potency is inconclusive: 29.1 µM [activator, single point].

Q: For `OCCC1CN(Cc2ccc(F)cc2)CCN1CCCc1ccccc1` (stereo not drawn), which Potency is on record?
A: The Potency was inconclusive: 13 µM [activator, partial curve, poor fit].

Q: With `Cc1ccc(C(=O)N/C(=C\c2ccc(C(C)C)cc2)C(=O)NCCCN2CCOCC2)cc1` as the compound, how does the Potency read?
A: The Potency was inconclusive: 32.6 µM [activator, partial curve, poor fit].

Q: Which Potency does the source give for `COC(=O)c1c(NC(=O)/C=C/C(=O)O)sc(C)c1-c1ccc(C)c(C)c1` here?
A: Its Potency is inconclusive: 23.1 µM [activator, single point].

Q: For `Cc1ccc(SCCNC(=S)Nc2ccc(C)c(C)c2)cc1`, which Potency is on record?
A: Its Potency is inconclusive: 16.4 µM [activator, single point].

Q: For `COc1ccc(-c2c(C#Cc3ccsc3)c3ccccc3n2C)cc1`, which Potency is on record?
A: The Potency was inconclusive: 32.6 µM [activator, partial curve, poor fit].

Q: For `CN(C)CC1CCC/C(=C/c2ccc(Cl)cc2)C1=O` (stereo not drawn), which Potency is on record?
A: The Potency was inconclusive: 29.1 µM [activator, single point].

Q: With `Clc1ccc(-c2nn3c(-c4ccccc4)nnc3s2)cc1` as the compound, how does the Potency read?
A: Its Potency is “inactive”.

Q: With `CC(=O)c1ccc(-c2ccc(C(=O)NCC(c3ccc(F)cc3)N3CCOCC3)o2)cc1` (stereo not drawn) as the compound, how does the Potency read?
A: Its Potency is inconclusive: 29.1 µM [activator, single point].

Q: With `CC(C)CNS(=O)(=O)c1ccc(S(=O)(=O)NC2CCOC(C)(C)C2)cc1` (stereo not drawn) as the compound, how does the Potency read?
A: Its Potency is “inactive”.

Q: Which Potency does the source give for `Cc1ccc(C(=O)Nc2ccc(C)c(S(=O)(=O)N(C)C)c2)s1` here?
A: Its Potency is inconclusive: 3.26 µM [activator, partial curve, poor fit].

Q: For `Nc1nccnc1C(=O)OCC(=O)NCCc1ccc(S(N)(=O)=O)cc1`, which Potency is on record?
A: The Potency was “inactive”.

Q: Which Potency does the source give for `CC(C)N(C(=O)CSc1nc2ccccc2n1-c1ccccc1)C(C)C` here?
A: The Potency was inconclusive: 32.6 µM [activator, partial curve, poor fit].

Q: Which Potency does the source give for `O=c1sc2ccccc2c(N2CCCC2)c1[N+](=O)[O-]` here?
A: Its Potency is inconclusive: 0.891 µM [activator, full curve, poor fit].

Q: With `CN(C)c1ccnc(Oc2ccc(C(C)(C)C)cc2)c1C#N` as the compound, how does the Potency read?
A: The Potency was “inactive”.

Q: With `O=C(NCCc1ccccc1)c1cccc(NC(=O)C2CCCC2)c1` as the compound, how does the Potency read?
A: The Potency was “inactive”.

Q: With `Cc1cc(C)n2[nH]c(=O)c(N=Nc3ccccc3)c2n1` as the compound, how does the re-replication activation read?
A: Its re-replication activation is inactive: -3.79% [at 9.22 µM].

Q: With `COc1ccccc1N1CCN(C(=O)c2ccc(Cn3c(=S)[nH]c4cc5c(cc4c3=O)OCO5)cc2)CC1` as the compound, how does the Potency read?
A: Its Potency is “inactive”.

Q: Which Potency does the source give for `COc1cccc(CC(=O)n2nc(N)c3cc4ccc(OC)cc4nc32)c1` here?
A: The Potency was “inactive”.

Q: Which Potency does the source give for `CC(=O)CC(=O)Nc1ncc(C(F)(F)F)cc1Cl` here?
A: The Potency was “inactive”.

Q: With `CCN1CCN(C(c2ccccc2)c2nnnn2Cc2ccc(OC)cc2)CC1` (stereo not drawn) as the compound, how does the Potency read?
A: Its Potency is “inactive”.

Q: With `Cc1ccc(-n2cc(CN3CCC(O)(c4ccccn4)CC3)c(-c3ccc(F)cc3)n2)cc1` as the compound, how does the Potency read?
A: The Potency was inconclusive: 29.1 µM [activator, single point].

Q: With `CCOc1ccc(S(=O)(=O)NCc2ccccn2)cc1NC(=O)c1ccccc1` as the compound, how does the Potency read?
A: Its Potency is inconclusive: 1.84 µM [activator, full curve, poor fit].

Q: With `CCOc1cc(N2CCOCC2)c(OCC)cc1NC(=O)Cc1ccccc1OC` as the compound, how does the Potency read?
A: Its Potency is inconclusive: 18.4 µM [activator, partial curve, poor fit].

Q: Which Potency does the source give for `CN(C)C(=S)N=Nc1[nH]c2ccccc2c1O` here?
A: Its Potency is inconclusive: 23.1 µM [activator, single point].

Q: For `CC1=CC(C)[C@H](/C=N/n2c(=O)[nH]c3c([nH]c4ccc(Br)cc43)c2=O)C(C)C1` (stereo partly drawn), which re-replication activation is on record?
A: Its re-replication activation is inconclusive: 36.1% [activator].

Q: Which Potency does the source give for `COc1ccccc1-c1sc2ccccc2c1C#CC1(O)CCCCC1` here?
A: Its Potency is “inactive”.

Q: With `CSCC[C@H](NC(=O)c1cccc(S(=O)(=O)N2CCCCCC2)c1)c1nc2ccccc2[nH]1` as the compound, how does the Potency read?
A: Its Potency is inconclusive: 20.6 µM [activator, single point].

Q: Which re-replication activation does the source give for `CC(Oc1cccc(Cl)c1)C(=O)Nc1ccc(N2CCOCC2)cc1N1CCOCC1` (stereo not drawn) here?
A: Its re-replication activation is inactive: -95% [at 9.22 µM].

Q: Which Potency does the source give for `CCN(CC)CCNCC(O)(c1ccc(Cl)cc1)c1ccc(Cl)cc1` here?
A: The Potency was inconclusive: 29.1 µM [activator, single point].

Q: Which Potency does the source give for `Cc1cc(C)n(CC(O)CN(c2ccccc2)S(=O)(=O)c2ccc3ccccc3c2)n1` (stereo not drawn) here?
A: Its Potency is inconclusive: 0.82 µM [activator, full curve, poor fit].

Q: Which Potency does the source give for `Cc1ccccc1N1C(S)=C(C#N)C(=O)NC12CCCCC2` here?
A: Its Potency is inconclusive: 29.1 µM [activator, single point].

Q: Which Potency does the source give for `CC1CCN(S(=O)(=O)c2cn(CC(=O)N3CCN(c4cccc(C(F)(F)F)c4)CC3)cn2)CC1` here?
A: Its Potency is “inactive”.

Q: Which Potency does the source give for `COc1ccc(NS(=O)(=O)c2cc(NC(=O)C3CC3)ccc2N2CCCCC2)cc1` here?
A: Its Potency is inconclusive: 29.1 µM [activator, single point].

Q: Which Potency does the source give for `CCCCCCCCCC(=O)N/N=C/c1ccc(C)s1` here?
A: Its Potency is inconclusive: 29.1 µM [activator, single point].

Q: For `CN1CCN(c2ccc(Cl)cc2NC(=O)c2ccc(S(=O)(=O)N3CCCCCC3)cc2)CC1`, which Potency is on record?
A: Its Potency is inconclusive: 18.4 µM [activator, single point].

Q: Which Potency does the source give for `C=CCc1cccc(/C=N/NC(=O)c2ccc3nc[nH]c3c2)c1O` here?
A: Its Potency is inconclusive: 0.411 µM [activator, full curve, poor fit].

Q: Which Potency does the source give for `C=C[C@@H]1c2ccccc2N(S(=O)(=O)c2ccc(C)cc2)[C@H](c2ccc(OC(C)=O)cc2)C1(C#N)C#N` here?
A: The Potency was inconclusive: 29.1 µM [activator, single point].

Q: With `CN(Cc1ccccc1)c1nc2c(c(=O)n(C)c(=O)n2C)n1CCSc1ncccn1` as the compound, how does the Potency read?
A: Its Potency is inconclusive: 16.4 µM [activator, partial curve, poor fit].

Q: For `CSc1n[nH]c2nc3c(c(=O)n12)C1(CCCCC1)Cc1ccccc1-3`, which Potency is on record?
A: Its Potency is inconclusive: 20.6 µM [activator, single point].

Q: For `N#Cc1ccc(C(=O)OCC(=O)NC(=O)NCc2ccccc2)cc1`, which Potency is on record?
A: The Potency was “inactive”.

Q: With `CC(NC(=S)NC1CCCCC1)c1ccccc1` (stereo not drawn) as the compound, how does the Potency read?
A: The Potency was “inactive”.

Q: With `C=C(C)COc1ccc(-c2nc(N)ncc2-c2ccc(Br)cc2)c(O)c1` as the compound, how does the Potency read?
A: Its Potency is inconclusive: 18.4 µM [activator, single point].

Q: With `CC(C)(C)c1cc(C(F)(F)F)n2ncc(-c3ccccc3)c2n1` as the compound, how does the Potency read?
A: Its Potency is inconclusive: 29.1 µM [activator, single point].

Q: For `Cc1nn(C)c(Cl)c1CN1CCCC(CO)(Cc2ccccc2)C1` (stereo not drawn), which Potency is on record?
A: Its Potency is inconclusive: 23.1 µM [activator, single point].

Q: Which Potency does the source give for `Cc1ccc(NC(=O)CSc2nnc(-c3cccnc3)o2)c(C)c1` here?
A: Its Potency is inconclusive: 2.31 µM [activator, single point].

Q: For `COc1cc(C(=O)Nc2ccc3c(c2)ncn3C)cc(OC)c1OC`, which Potency is on record?
A: The Potency was inconclusive: 0.58 µM [activator, partial curve, poor fit].

Q: Which Potency does the source give for `Cn1c(SCC(=O)Nc2ccc3nc(SCC(=O)N4CCCC4)sc3c2)nnc1-c1ccccc1` here?
A: The Potency was “inactive”.

Q: With `COc1ccc(NC(=O)Cn2nnc(C(=O)NCc3cccs3)c2N)c(OC)c1` as the compound, how does the Potency read?
A: The Potency was inconclusive: 18.4 µM [activator, single point].

Q: Which Potency does the source give for `CCSc1nnc2c(n1)OC(C)(C)Nc1ccccc1-2` here?
A: The Potency was inconclusive: 0.58 µM [activator, partial curve, poor fit].

Q: With `CCOc1cc(CNc2ccc(O)cc2)cc(Br)c1OCc1ccccc1F` as the compound, how does the Potency read?
A: Its Potency is inconclusive: 29.1 µM [activator, single point].

Q: With `C/C(=N\NC(=O)c1cc(C2CC2)nc2ccccc12)c1ccc(C)s1` as the compound, how does the Potency read?
A: The Potency was inconclusive: 8.91 µM [activator, partial curve].

Q: Which Potency does the source give for `CCCC(=O)OCCNc1cc(Sc2nc3ccccc3[nH]2)c2nonc2c1[N+](=O)[O-]` here?
A: Its Potency is inconclusive: 4.61 µM [activator, full curve].

Q: Which Potency does the source give for `O=C(c1ccccc1)C(O)C(c1ccccc1)N1CCOCC1` (stereo not drawn) here?
A: The Potency was “inactive”.

Q: Which Potency does the source give for `N/C(=N\OCc1ccc([N+](=O)[O-])cc1)c1ccncc1` here?
A: The Potency was inconclusive: 29.1 µM [activator, single point].

Q: For `CC1CCN(C(=O)c2ccc(S(=O)(=O)Cc3ccccc3F)c([N+](=O)[O-])c2)CC1`, which Potency is on record?
A: The Potency was inconclusive: 4.61 µM [activator, full curve, poor fit].

Q: Which Potency does the source give for `CCSc1ccc2cc(OC)ccc2[n+]1CC` here?
A: The Potency was inconclusive: 29.1 µM [activator, single point].

Q: With `CCOC(=O)c1cccc(NC(=O)Nc2ccc(OCC)cc2)c1` as the compound, how does the Potency read?
A: Its Potency is “inactive”.

Q: With `Cc1cc(OCC(=O)Nc2ccccn2)c2c(C)cc(=O)oc2c1` as the compound, how does the Potency read?
A: Its Potency is inconclusive: 5.62 µM [activator, single point].

Q: Which Potency does the source give for `CCOc1cccc(C=Nc2cc(C)cc(C)c2O)c1O` here?
A: Its Potency is inconclusive: 29.1 µM [activator, partial curve, poor fit].

Q: With `COc1ccc(CCNC(=O)CCNC(=O)c2ccco2)cc1` as the compound, how does the Potency read?
A: The Potency was inconclusive: 23.1 µM [activator, single point].

Q: Which Potency does the source give for `CC(C)NC(=O)CNc1ccc(C(F)(F)F)cc1[N+](=O)[O-]` here?
A: The Potency was inconclusive: 18.4 µM [activator, single point].

Q: Which Potency does the source give for `Cc1cc(-c2ccccc2)nc(N(C)NC(=O)c2c(F)cccc2F)c1S(C)(=O)=O` here?
A: The Potency was “inactive”.

Q: With `O=C(CS(=O)(=O)c1ccccc1Cl)N1CCOCC1` as the compound, how does the Potency read?
A: Its Potency is “inactive”.

Q: With `COc1ccc(C2C3=C(N=C4SCC(=O)N42)c2ccccc2CC3)cc1OC` (stereo not drawn) as the compound, how does the Potency read?
A: Its Potency is inconclusive: 16.4 µM [activator, partial curve, poor fit].

Q: With `Nc1ccc(C2(c3ccc(N)cc3)C(=O)Nc3ccccc32)cc1` as the compound, how does the Potency read?
A: The Potency was inconclusive: 0.0231 µM [activator, full curve, poor fit].
